The campaign covered roughly 52,000 sequences. About 210 (0.4%) were called active.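 Rule for the calls: active = gene whose silencing raises cell survival under the drug, median off-target-corrected z-score across its silencing RNAs 2 or more; inactive = the rest.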 Some of the results follow.

The nature of this assay: Resistance to Poly (ADP-Ribose) Polymerase inhibitor: Gene Identification via Genome-wide siRNA Screen. To be noted: mouse BRCA2 R2336H ES cells, olaparib, CellTiter-Glo viability; active compounds read high. The method, boiled down:
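Mouse BRCA2 R2336H ES cells were reverse-transfected with siRNA (20 nM final), treated at 48 h with 500 nM olaparib, and read by CellTiter-Glo after 72 h. Scores: MAD-based z per siRNA, median per gene, seed off-target correction.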
For the sequence CCAGCCUGAAAGAAGAGAATT against Ifna14, the z-score was inactive: 0.961. Consider “CCCUACAAGAAUUUUGAGATT against 4931415M17”, for which the z-score is inactive: 0.417. On to CCGAUGGAGGUUCCUACUGTT against Cry2, for which the z-score is inactive: -0.461. For CGUGGUUAAGUCACGACUGTT against Slc25a29 the value was inactive: -0.675. In the case of GCUGUCAAAUUAACCUGUGTT against Spin2 it was inactive: 0.274. For “CCACGACGUACAUCCAUAATT against 5930418K15Rik” the value was inactive: -0.427; for GGUGACCUUGAACAAGCCCTT against Odf3, inactive: 0.519.

In the case of GCCGGUCCUCUCUUACUACTT against Irs1, the z-score was inactive: 0.68. For CCAAUCGGUGAUCAAGAAATT against Tcfap2e the value was inactive: 1.74; for “CGCAGACGUACAAGUCUCATT against 1700018B24Rik”, inactive: 0.222; for GGGUUCUCUAUAUCACAGGTT against Mrgpra3, inactive: -0.224.

As for GGGCUACUACAAUGAGUACTT against Phospho1, the z-score was inactive: -0.329. In the case of GGCUUCUACCUUCGAGACUTT against AI790298 it was inactive: -0.552; in that of “GCUAUGAACUUGUAGGAAATT against 1700042N06Rik”, inactive: 0.558.

As to GGCAUUGACACAAGGGAUGTT against Olfr975, the z-score was inactive: -2.12.

Take “GGAAAAAGAUGCUUUCACATT against 4933409I22”: the z-score was inactive: -0.345. Turning to GGAGGAACUCCUAAAGAAGTT against Galnt15, the z-score was inactive: -0.261. GGACAUUGUUUACAAGCUGTT against Rnf3: the z-score is inactive: -0.146. For GGGUUUUCUAACAUUCAAATT against Pigm the value was inactive: 0.793. For “GGAGUUUGACCGGAAGUACTT against 3110043J09Rik”, the z-score was inactive: -1.12.

As for GGAAGAAGAAAAGAAAGACTT against Gphn, the z-score was inactive: 0.849.

Regarding GCAGUCGAGAUCAAACAGGTT against Crabp2, the z-score is inactive: 0.413. For “CCUUCAGCUUCCUUUUUACTT against A630098G03Rik” the value was inactive: 0.142; for GCUGUGACUCUACUGGAGGTT against Zfp397, inactive: 0.21. For GGCCUUGAUGCCAUUGUAATT against Zfp364 the value was inactive: -1.56; for CUGGUUAGAAAGAUCUUCCTT against AY616753, inactive: -0.37. For GGAGAAGAAAAAGAUUAUCTT against Atp6v1d the value was inactive: 0.762. As for GCACCUACUGAUUGAACGCTT against Calb3, the z-score was inactive: -0.371.

Turning to CGGUUCUCUAAAUGGCUCATT against Rhox12, the z-score was inactive: -0.219.

In the case of CCUAUCUUUUCCCUACAUGTT against BC013476, the z-score was inactive: -1.11. In the case of GGAUCUUCCAAGUUGUCUGTT against Srm it was inactive: -0.666; in that of CCUUUUUCGAAAAAUCAGGTT against Lyst, inactive: 0.181. For GGAAAUGUGCUUUAUUCGUTT against Tktl1 the value was inactive: 1.06; for CCACUGGUCAUUCUUGCUUTT against Olfr228, inactive: -0.357; for GGUGGAUGAAGACUACAUCTT against Csnk2b, inactive: -1.26. In the case of GCAAGACCAAAAUUCGAACTT against Mat2b it was inactive: 1.5. On to GGACCAGGUUCACUUCCCUTT against Ovol1, for which the z-score was inactive: 0.343.

For the sequence GCACCAUGAAUUCUAUUGCTT against Kcnmb1, the z-score was inactive: 1.52. In the case of CGACAGCUACUACGUGGAUTT against Zfp366 it was inactive: 2.06; in that of GGAGCAAGAAAAUGUUCCATT against Akr1b7, inactive: -1.55.

On to CCUAGGGCUUGUGGUACUATT against Olfr1323, for which the z-score is inactive: 0.1. Turning to “GGCACUUCCUCCCUCAACATT against 4833420G17Rik”, the z-score was inactive: -0.737. For “GGUGGUCUACCAGCAUUUGTT against 9430063L05Rik” the value was inactive: -0.726; for GGGAGUGGCUGAAAAGUGUTT against AI427652, inactive: -0.834; for GCUGAGUUUUGUGGUAGACTT against Olfr1310, inactive: 1.04. In the case of CCCAUAAAGGAUCUGACAGTT against Casp7 it was inactive: -1.61; in that of GGCAGACAUUAAAUAUACUTT against Pax1, inactive: 1.29. For GGACAGUGUUUACAAACUUTT against Fbxw7 the value was inactive: 0.328. Consider CCUGCAUCAGGACUAUUGGTT against Fndc4, for which the z-score was inactive: -0.414. Consider GCGGAGCCAUAAUGAAUAATT against Rev3l, for which the z-score is inactive: 0.228. In the case of GGAGAGUCCUUCUGUGACUTT against Tce1 it was inactive: 0.948; in that of GGUGAAGCACUUUUGUCCCTT against Rhoc, inactive: 1.25.

With GGAUUUAGAAGUGUUAAAGTT against Pdlim1, the z-score was inactive: -0.579. For GGUGUCACCACUUAUGUUGTT against Cyp2b9 the value was inactive: -0.358.

Take GGAUCUGGAUACUUUUCCATT against Arhgap22: the z-score was inactive: 0.406.

In the case of GGGAUAGUUACAUUGAAGUTT against Acate3, the z-score was inactive: 1.33. In the case of CCUCCAGUGCUUUUGUAUATT against Olfr1437 it was inactive: 0.0203; in that of GCUCUAUAGUGACCAAUGUTT against Gcgr, inactive: 0.0325. In the case of “GGAUAGUAUACUAGAAGAATT against F730047E07Rik” it was inactive: -3.11; in that of CGUACCAUGUAAAUUCUAUTT against Impa1, inactive: 1.02. In the case of GUCAGAUCUCAGAAUCAUGTT against Sr278 it was inactive: 0.853; in that of “GGACUUCUUUGUAAUACUGTT against 9830132L24”, inactive: -0.309; in that of GGCAAAAACAACAACAACATT against Isg20, inactive: -0.686.

In the case of GGGCUUUCAAUGAAUUACGTT against Zc3hdc5, the z-score is inactive: -0.871. For the sequence CGAUGUUGGUAUUACUGUUTT against MGC38735, the z-score is inactive: 1.42.

Take GGAGCCUUUCUAGCUACCUTT against Egfl9: the z-score was inactive: 0.915. In the case of GGCAUUGACAUAGGUCAUATT against Blcap it was inactive: 0.896.

For the origin of these results see PubChem BioAssay AID1347423 (Functional Genomics Laboratory (NCATS/FGL), 2020).
